The target in assay [1] is T1, Nkd1-BirA* (wild type) (murine) (UniProt Q99MH6).
T1 sequence: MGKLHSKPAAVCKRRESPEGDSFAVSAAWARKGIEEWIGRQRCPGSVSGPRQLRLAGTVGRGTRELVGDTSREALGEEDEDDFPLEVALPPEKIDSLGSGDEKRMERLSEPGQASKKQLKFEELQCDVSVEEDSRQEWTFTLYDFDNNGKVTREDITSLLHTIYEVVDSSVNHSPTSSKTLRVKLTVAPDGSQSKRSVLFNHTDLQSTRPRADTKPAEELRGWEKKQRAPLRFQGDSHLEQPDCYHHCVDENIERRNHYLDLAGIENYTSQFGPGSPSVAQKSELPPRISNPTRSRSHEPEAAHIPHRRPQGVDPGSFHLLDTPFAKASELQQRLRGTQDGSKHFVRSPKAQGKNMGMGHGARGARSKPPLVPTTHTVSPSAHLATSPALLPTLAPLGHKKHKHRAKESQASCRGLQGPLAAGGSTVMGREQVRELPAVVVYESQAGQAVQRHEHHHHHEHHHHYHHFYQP
Nature of the assay: proximity labelling.

Protein sequences, listed by entry. Tags and fused reporters are not part of them. Residues count along the entry.
UniProt P46531, residues 19-2555: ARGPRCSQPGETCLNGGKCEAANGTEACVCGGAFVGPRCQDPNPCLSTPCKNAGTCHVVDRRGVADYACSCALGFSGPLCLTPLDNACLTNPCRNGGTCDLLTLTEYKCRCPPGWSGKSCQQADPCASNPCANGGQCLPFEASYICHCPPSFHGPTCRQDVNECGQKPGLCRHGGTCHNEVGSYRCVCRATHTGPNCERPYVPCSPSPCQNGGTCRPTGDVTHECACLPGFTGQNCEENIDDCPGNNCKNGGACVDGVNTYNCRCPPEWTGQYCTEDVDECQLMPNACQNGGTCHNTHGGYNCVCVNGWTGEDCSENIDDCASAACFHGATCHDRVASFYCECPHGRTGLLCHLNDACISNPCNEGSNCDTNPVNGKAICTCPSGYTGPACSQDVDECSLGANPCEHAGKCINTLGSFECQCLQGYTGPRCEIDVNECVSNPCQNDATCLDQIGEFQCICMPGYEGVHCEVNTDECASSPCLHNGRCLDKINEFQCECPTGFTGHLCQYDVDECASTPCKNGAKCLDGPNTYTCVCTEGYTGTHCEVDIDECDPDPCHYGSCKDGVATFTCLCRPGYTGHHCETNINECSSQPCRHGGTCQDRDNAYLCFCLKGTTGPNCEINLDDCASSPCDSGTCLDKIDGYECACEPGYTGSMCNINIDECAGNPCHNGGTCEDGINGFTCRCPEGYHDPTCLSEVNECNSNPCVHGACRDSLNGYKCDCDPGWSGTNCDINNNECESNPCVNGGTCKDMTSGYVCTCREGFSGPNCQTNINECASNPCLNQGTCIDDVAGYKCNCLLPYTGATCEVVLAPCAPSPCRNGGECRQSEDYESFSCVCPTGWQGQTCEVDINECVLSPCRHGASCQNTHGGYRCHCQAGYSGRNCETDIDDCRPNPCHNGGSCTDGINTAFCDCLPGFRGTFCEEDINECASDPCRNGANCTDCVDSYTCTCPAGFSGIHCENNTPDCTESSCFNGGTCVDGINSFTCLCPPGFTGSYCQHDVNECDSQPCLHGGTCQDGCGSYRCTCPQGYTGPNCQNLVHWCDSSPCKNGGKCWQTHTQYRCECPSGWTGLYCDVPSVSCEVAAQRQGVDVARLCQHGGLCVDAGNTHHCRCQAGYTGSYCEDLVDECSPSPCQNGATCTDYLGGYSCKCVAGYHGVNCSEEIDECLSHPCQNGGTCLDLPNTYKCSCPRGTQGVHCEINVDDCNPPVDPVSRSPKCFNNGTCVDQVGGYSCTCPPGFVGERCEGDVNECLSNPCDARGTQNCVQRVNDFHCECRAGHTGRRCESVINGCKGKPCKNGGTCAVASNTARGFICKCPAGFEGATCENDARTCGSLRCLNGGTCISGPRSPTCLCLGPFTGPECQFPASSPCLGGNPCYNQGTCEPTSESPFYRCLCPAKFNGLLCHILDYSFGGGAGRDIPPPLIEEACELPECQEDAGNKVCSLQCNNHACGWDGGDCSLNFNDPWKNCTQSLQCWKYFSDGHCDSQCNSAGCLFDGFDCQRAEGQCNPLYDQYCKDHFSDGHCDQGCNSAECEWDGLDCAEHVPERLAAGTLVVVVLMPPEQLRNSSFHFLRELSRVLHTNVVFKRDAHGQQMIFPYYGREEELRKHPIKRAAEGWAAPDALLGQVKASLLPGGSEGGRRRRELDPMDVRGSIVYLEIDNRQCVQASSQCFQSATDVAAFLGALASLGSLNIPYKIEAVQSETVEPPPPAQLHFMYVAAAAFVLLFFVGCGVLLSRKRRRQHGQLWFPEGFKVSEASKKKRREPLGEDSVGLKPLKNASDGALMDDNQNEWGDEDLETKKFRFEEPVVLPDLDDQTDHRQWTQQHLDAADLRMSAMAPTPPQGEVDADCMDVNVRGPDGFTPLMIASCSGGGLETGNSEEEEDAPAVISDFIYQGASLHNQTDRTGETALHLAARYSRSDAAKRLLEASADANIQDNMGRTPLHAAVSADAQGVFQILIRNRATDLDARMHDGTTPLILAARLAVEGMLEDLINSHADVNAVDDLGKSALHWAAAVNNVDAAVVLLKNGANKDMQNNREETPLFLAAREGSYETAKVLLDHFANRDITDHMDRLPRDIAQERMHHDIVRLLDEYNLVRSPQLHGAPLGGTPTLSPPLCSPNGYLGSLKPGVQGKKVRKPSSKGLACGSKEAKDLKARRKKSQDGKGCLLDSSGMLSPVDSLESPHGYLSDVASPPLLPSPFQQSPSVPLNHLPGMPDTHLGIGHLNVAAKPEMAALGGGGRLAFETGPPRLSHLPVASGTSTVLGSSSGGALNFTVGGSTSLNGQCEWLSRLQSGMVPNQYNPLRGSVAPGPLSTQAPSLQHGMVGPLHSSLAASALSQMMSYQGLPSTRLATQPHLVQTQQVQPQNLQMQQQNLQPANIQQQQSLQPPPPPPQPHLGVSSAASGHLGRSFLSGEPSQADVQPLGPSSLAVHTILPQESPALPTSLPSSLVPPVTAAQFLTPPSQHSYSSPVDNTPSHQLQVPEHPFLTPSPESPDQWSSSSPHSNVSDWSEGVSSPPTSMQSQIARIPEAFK
UniProt O14641: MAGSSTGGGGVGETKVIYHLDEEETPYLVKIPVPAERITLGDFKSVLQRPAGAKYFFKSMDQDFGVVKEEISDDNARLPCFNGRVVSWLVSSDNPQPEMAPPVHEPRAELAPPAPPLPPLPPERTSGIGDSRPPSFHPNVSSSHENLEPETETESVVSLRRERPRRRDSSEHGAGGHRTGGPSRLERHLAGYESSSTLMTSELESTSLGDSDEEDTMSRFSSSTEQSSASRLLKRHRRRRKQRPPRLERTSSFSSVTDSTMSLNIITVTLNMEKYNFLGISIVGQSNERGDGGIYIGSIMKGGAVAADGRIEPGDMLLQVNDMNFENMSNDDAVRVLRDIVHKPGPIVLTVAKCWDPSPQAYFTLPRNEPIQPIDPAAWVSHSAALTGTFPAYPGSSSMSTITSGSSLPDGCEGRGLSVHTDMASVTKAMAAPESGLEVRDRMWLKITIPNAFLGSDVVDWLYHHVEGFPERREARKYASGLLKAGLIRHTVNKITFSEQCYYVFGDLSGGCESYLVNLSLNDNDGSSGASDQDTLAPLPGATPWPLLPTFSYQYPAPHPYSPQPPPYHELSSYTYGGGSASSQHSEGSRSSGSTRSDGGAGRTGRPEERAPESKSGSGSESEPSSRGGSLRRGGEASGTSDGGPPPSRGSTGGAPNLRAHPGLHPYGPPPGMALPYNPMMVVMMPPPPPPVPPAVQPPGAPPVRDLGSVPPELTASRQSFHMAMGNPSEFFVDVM
UniProt Q9NYQ6, residues 21-3014: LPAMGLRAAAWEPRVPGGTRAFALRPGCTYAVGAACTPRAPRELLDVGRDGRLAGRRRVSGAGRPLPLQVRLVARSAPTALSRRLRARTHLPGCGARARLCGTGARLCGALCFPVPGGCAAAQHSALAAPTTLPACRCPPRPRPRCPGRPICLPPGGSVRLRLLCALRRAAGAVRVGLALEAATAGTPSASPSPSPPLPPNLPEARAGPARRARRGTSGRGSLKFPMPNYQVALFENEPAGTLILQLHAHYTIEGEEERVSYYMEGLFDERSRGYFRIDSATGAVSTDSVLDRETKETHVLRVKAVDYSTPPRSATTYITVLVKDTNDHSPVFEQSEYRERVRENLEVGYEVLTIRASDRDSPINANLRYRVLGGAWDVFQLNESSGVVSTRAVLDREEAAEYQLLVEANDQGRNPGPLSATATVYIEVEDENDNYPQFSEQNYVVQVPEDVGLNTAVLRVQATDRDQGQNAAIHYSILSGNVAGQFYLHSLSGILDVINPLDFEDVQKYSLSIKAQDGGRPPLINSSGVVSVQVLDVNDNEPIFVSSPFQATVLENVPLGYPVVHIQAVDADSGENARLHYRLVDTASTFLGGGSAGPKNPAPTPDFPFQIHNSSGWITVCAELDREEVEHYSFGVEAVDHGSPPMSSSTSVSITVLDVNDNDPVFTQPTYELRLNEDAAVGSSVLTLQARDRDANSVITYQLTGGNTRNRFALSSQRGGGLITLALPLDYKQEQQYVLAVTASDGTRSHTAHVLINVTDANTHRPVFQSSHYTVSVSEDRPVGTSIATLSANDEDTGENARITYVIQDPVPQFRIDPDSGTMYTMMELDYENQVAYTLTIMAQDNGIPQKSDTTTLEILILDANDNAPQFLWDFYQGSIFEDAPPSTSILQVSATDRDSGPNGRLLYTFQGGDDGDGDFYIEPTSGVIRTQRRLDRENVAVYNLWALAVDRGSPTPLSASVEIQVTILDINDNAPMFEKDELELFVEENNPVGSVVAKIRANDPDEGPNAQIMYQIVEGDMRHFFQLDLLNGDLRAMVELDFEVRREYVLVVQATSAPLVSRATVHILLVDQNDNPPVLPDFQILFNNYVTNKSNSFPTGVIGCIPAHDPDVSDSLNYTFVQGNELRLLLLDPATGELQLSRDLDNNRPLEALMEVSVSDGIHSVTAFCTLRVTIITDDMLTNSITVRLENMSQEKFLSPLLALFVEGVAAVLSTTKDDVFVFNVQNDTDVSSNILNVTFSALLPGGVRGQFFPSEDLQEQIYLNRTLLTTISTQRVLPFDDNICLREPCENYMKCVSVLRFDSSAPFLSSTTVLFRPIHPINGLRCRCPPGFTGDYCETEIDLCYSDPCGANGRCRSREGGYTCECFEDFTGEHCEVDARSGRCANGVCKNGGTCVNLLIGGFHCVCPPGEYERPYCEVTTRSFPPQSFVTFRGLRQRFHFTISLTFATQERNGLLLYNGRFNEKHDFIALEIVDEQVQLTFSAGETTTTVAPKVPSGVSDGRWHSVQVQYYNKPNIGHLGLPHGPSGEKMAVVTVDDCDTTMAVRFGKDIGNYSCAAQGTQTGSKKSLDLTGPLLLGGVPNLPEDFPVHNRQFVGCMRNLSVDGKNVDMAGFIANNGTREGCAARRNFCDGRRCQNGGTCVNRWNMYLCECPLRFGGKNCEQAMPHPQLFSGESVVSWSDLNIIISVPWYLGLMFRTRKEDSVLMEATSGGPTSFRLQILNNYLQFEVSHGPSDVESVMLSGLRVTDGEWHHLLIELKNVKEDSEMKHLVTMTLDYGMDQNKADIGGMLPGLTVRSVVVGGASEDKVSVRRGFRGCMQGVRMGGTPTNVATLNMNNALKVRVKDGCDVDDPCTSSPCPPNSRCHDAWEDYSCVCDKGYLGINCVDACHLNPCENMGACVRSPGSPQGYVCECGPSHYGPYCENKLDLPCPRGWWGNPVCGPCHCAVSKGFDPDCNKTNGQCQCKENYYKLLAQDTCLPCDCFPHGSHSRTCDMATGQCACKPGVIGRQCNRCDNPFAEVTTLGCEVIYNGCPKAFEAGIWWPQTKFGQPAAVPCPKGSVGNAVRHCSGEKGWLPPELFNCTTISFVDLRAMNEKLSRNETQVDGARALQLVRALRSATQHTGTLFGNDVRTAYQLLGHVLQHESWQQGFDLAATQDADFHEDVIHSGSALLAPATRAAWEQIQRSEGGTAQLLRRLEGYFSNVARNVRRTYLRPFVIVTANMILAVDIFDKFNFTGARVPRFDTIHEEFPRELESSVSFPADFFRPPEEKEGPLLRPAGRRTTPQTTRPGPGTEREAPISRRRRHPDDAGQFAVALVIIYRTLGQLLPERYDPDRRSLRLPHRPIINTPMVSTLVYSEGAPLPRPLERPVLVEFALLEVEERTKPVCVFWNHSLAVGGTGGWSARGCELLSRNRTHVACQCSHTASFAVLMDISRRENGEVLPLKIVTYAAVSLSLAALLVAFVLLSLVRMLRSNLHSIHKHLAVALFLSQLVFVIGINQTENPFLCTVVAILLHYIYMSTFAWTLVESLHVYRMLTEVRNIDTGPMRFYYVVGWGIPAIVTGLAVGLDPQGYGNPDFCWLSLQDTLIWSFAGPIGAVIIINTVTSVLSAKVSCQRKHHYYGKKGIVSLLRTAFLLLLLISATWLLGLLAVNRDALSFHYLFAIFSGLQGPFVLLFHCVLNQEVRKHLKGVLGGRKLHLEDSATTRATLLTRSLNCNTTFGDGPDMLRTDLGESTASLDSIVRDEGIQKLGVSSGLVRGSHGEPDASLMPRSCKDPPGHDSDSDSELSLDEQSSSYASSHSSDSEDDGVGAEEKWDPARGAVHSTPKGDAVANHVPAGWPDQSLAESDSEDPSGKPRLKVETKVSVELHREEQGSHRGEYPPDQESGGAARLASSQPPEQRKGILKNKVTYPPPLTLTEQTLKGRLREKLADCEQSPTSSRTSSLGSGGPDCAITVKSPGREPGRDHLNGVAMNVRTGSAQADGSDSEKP

For assay [2], the target named is T1, Nkd1-BirA* (wild type) (murine). Nature of the assay: proximity labelling. This is another data set of the same source.

Read-outs that look alike come from different tables or passages of the source. Results are given in words; binding and its absence hold for the method and conditions named. Binding seen in cells or lysates may run through a third protein. Here binding means that the protein was enriched with, or labelled near, the bait; the list need not be complete.

Consider “β-catenin (endogenous) (from UniProt P35222 1-781)”, for which the binding result in assay [1] was “binds”.
Still for that read-out and setting: for “Axin1 (endogenous) (from UniProt O15169 1-862)” the value was “binds”; for “ROR2 (endogenous) (from UniProt Q01974 34-943) (receptor)”, “binds”; for “Notch1 (endogenous) (from UniProt P46531) (receptor)”, “binds”.
On the same count and under the same terms, the same measure for “DVL2 (endogenous) (from UniProt O14641 1-736)”: “binds”; for “CELSR1 (endogenous) (from UniProt Q9NYQ6 21-3014)”: “binds”.
Take “Notch2 (endogenous) (from UniProt Q04721) (receptor)”: the binding entry in assay [1] was “binds”.
As to “LRP5 (endogenous) (from UniProt O75197 32-1615) (receptor)”, the binding entry in assay [1] is on record as “binds”.
As for “p62 autophagy receptor (endogenous) (from UniProt Q13501 1-440)”, the binding entry in assay [2] and in assay [1] was “binds” throughout.

B1: VANGL1 (endogenous) (protein, UniProt Q8TAA9 1-524)
chain: MDTESTYSGYSYYSSHSKKSHRQGERTRERHKSPRNKDGRGSEKSVTIQPPTGEPLLGNDSTRTEEVQDDNWGETTTAITGTSEHSISQEDIARISKDMEDSVGLDCKRYLGLTVASFLGLLVFLTPIAFILLPPILWRDELEPCGTICEGLFISMAFKLLILLIGTWALFFRKRRADMPRVFVFRALLLVLIFLFVVSYWLFYGVRILDSRDRNYQGIVQYAVSLVDALLFIHYLAIVLLELRQLQPMFTLQVVRSTDGESRFYSLGHLSIQRAALVVLENYYKDFTIYNPNLLTASKFRAAKHMAGLKVYNVDGPSNNATGQSRAMIAAAARRRDSSHNELYYEEAEHERRVKKRKARLVVAVEEAFIHIQRLQAEEQQKAPGEVMDPREAAQAIFPSMARALQKYLRITRQQNYHSMESILQHLAFCITNGMTPKAFLERYLSAGPTLQYDKDRWLSTQWRLVSDEAVTNGLRDGIVFVLKCLDFSLVVNVKKIPFIILSEEFIDPKSHKFVLRLQSETSV
Regarding B1, the binding result in assay [1] is “binds”.

B2: DVL1 (endogenous) (protein, UniProt O14640 1-695)
chain: MAETKIIYHMDEEETPYLVKLPVAPERVTLADFKNVLSNRPVHAYKFFFKSMDQDFGVVKEEIFDDNAKLPCFNGRVVSWLVLAEGAHSDAGSQGTDSHTDLPPPLERTGGIGDSRPPSFHPNVASSRDGMDNETGTESMVSHRRERARRRNREEAARTNGHPRGDRRRDVGLPPDSASTALSSELESSSFVDSDEDGSTSRLSSSTEQSTSSRLIRKHKRRRRKQRLRQADRASSFSSITDSTMSLNIVTVTLNMERHHFLGISIVGQSNDRGDGGIYIGSIMKGGAVAADGRIEPGDMLLQVNDVNFENMSNDDAVRVLREIVSQTGPISLTVAKCWDPTPRSYFTVPRADPVRPIDPAAWLSHTAALTGALPRYGTSPCSSAVTRTSSSSLTSSVPGAPQLEEAPLTVKSDMSAVVRVMQLPDSGLEIRDRMWLKITIANAVIGADVVDWLYTHVEGFKERREARKYASSLLKHGFLRHTVNKITFSEQCYYVFGDLCSNLATLNLNSGSSGTSDQDTLAPLPHPAAPWPLGQGYPYQYPGPPPCFPPAYQDPGFSYGSGSTGSQQSEGSKSSGSTRSSRRAPGREKERRAAGAGGSGSESDHTAPSGVGSSWRERPAGQLSRGSSPRSQASATAPGLPPPHPTTKAYTVVGGPPGGPPVRELAAVPPELTGSRQSFQKAMGNPCEFFVDIM
Take B2: the binding result in assay [1] is given as “binds”.

B3: AMER1 (endogenous) (protein, UniProt Q5JTC6 1-1135)
chain: METQKDEAAQAKGAAASGSTREQTAEKGAKNKAAEATEGPTSEPSSSGPGRLKKTAMKLFGGKKGICTLPSFFGGGRSKGSGKGSSKKGLSKSKTHDGLSEAAHGPEDVVSEGTGFSLPLPELPCQFPSSQSAHGALETGSRCKTSVAGATEKAVAEKFPSMPKPKKGLKGFFSSIRRHRKSKVTGAEQSEPGAKGPERVRARPHEHVSSAPQVPCFEETFQAPRKENANPQDAPGPKVSPTPEPSPPATEKMACKDPEKPMEACASAHVQPKPAPEASSLEEPHSPETGEKVVAGEVNPPNGPVGDPLSLLFGDVTSLKSFDSLTGCGDIIAEQDMDSMTDSMASGGQRANRDGTKRSSCLVTYQGGGEEMALPDDDDEEEEEEEEVELEEEEEEVKEEEEDDDLEYLWETAQMYPRPNMNLGYHPTTSPGHHGYMLLDPVRSYPGLAPGELLTPQSDQQESAPNSDEGYYDSTTPGFEDDSGEALGLVRRDCLPRDSYSGDALYEFYEPDDSLENSPPGDDCLYDLHGRSSEMFDPFLNFEPFLSSRPPGAMETEEERLVTIQKQLLYWELRREQLEAQEARAREAHAREAHAREAYTREAYGREAYAREAHTWEAHGREARTREAQAREVRCRETQVRETQARQEKPVLEYQMRPLGPSVMGLAAGVSGTSQISHRGITSAFPTTASSEPDWRDFRPLEKRYEGTCSKKDQSTCLMQLFQSDAMFEPDMQEANFGGSPRRAYPTYSPPEDPEEEEVEKEGNATVSFSQALVEFTSNGNLFSSMSCSSDSDSSFTQNLPELPPMVTFDIADVERDGEGKCEENPEFHNDEDLAASLEAFELGYYHKHAFNNYHSRFYQGLPWGVSSLPRYLGLPGLHPRPPPAAMALNRRSRSLDTAETLEMELSNSHLVQGYLESDELQAQQEDSDEEDEEEEEGEWSRDSPLSLYTEPPGAYDWPAWAPCPLPVGPGPAWISPNQLDRPSSQSPYRQATCCIPPMTMSISLSVPESRAPGESGPQLARPSHLHLPMGPCYNLQPQASQSMRARPRDVLLPVDEPSCSSSSGGFSPSPLPQAKPVGITHGIPQLPRVRPEHPQPQPTHYGPSSLDLSKERAEQGASLATSYSSTAMNGNLAK
As for B3, the binding result in assay [1] is “binds”.

These data come from article doi:10.1101/2020.06.10.144725 (bioRxiv, 2020).
